Results are given in words; binding and its absence hold for the method and conditions named. Binding calls can cover weak binding; strength is not graded here. For some of these results: Binding seen in cells or lysates may run through a third protein.

Amino acid sequences for entries named in this document (tags omitted). A change or cut given only in a name is not applied to a line headed by its entry.
UniProt A1XBS5: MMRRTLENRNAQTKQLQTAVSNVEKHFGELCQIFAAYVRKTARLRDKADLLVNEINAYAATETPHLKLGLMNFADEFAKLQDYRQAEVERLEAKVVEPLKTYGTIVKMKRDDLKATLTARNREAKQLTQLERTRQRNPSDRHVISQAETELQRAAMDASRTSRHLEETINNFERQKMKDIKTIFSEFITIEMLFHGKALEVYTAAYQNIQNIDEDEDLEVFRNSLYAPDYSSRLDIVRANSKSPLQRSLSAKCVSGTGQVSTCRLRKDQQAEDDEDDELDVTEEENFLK

Experimental findings from article doi:10.1101/2025.03.27.645700 are described below.

The target in one test is T1, XlCcz1 (Xenopus laevis) (UniProt Q7T102).
T1 sequence: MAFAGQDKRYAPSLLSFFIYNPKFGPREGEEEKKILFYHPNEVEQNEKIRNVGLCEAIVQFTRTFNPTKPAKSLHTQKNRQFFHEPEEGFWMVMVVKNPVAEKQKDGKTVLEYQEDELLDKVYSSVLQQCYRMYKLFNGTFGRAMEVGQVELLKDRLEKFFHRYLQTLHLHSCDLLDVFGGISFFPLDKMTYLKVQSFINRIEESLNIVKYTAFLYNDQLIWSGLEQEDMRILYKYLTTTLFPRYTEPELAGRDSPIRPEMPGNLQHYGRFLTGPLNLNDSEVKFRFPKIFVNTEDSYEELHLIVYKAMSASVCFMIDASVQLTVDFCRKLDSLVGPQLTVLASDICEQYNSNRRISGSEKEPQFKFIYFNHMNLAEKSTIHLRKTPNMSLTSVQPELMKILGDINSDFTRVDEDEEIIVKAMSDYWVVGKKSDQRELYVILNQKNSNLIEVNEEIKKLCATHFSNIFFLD
The test is described as follows: pull-down.

Another test deals with T2, HsRsg1 (human) (UniProt Q9BU20).
T2 sequence: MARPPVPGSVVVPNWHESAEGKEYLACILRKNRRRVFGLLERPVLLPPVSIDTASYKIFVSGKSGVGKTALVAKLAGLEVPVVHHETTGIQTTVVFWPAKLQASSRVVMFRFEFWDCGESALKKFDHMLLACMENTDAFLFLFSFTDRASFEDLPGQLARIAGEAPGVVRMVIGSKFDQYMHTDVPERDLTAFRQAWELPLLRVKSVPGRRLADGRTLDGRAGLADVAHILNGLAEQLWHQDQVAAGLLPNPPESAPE
The experiment in a line: pull-down.

A further test concerns the target XlMon1 (Xenopus laevis). The test is described as follows: pull-down.
A further test addresses HsCiBAR1 (human) (UniProt A1XBS5). The test is described as follows: co-sedimentation.

As for XlBulli (Xenopus laevis), the binding entry in the test with XlCcz1 (Xenopus laevis) is reported as “binds”.

On to HsCiBAR1 (from UniProt A1XBS5), for which the binding result with HsRsg1 (human) is reported as “binds”.

B1: XlCcz1 (protein, UniProt Q7T102 1-471)
chain: T1 sequence
Regarding B1, the binding result with XlMon1 (Xenopus laevis) was “binds”.

B2: HsRsg1 (protein, UniProt Q9BU20 1-258)
chain: T2 sequence
Turning to B2, the binding entry with HsCiBAR1 (human) is “binds”.
